Data published in patent publication US4628090A, “Fluorine-containing antifolates incapable of polyglutanayte formation related compounds” (Rensselaer Polytechnic Institute, priority 1985, dated 1986).
At least one compound was matched to its structure with a doubt left.

Test system: folylpolyglutamate synthetase
Test: Polyglutamylation by FPGS: incubation with FPGS, ATP and glutamic acid (Tables 2 and 3)
Format: biochemical
Settings: Table 2 footnotes, ATP, glutamic acid

Nc1nc2c(c(=O)[nH]1)N[C@H](CNc1ccc(C(=O)N[C@@H](CCC(=O)O)C(=O)O)cc1)CN2 [Tetrahydrofolate]
polyglutamylation: undergoes
